Results: PubChem BioAssay AID1688 (National Center for Advancing Translational Sciences (NCATS), 2009)
Out of some 220,000 compounds screened, about 2,400 (1.1%) were called active. The shares of active, inactive and inconclusive entries below differ from those in the screen. Calls come from the whole dose curve; as a rule, active = well fitted inhibition curve with a large enough effect; inconclusive = small, poorly fitted or top-dose-only effect, or effect the other way; inactive = no such curve, though single readings can be large or run the other way. Potencies of inconclusive entries are doubtful fits and often do not repeat.

Experiment: qHTS Multiplex Assay to Identify Dual Action Probes in a Cell Model of Huntington: Aggregate Formation (GFP); note: nearly all actives have a fitted effect of over 60% in size
Conditions: PC12 HttQ103-GFP aggregates, Acumen cytometry, 40 h; activity change, negative = inhibition: at 46.1 µM (top of the series) unless noted
Method in brief: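 Steps: seed 1500 PC12 HTTQ103-GFP cells/well; add tebufenozide, 100 nM final; add compound titration; add ATPLite reagent; quantify GFP aggregates by laser scanning cytometry.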
% is set by controls: 0 for no effect and ±100 for the full control effect; potency is the fitted concentration of half-maximal effect.

| Structure (SMILES) | Potency | activity change, negative = inhibition |
| --- | --- | --- |
| Cn1cnc([N+](=O)[O-])c1S(=O)(=O)c1cccc(Cl)c1 | active: 5.62 µM |  |
| CC(=O)NN1C(=O)/C(=C\c2ccc(Br)o2)SC1=S | inconclusive: 35.5 µM [activator, single point] |  |
| O=c1c2cnn(-c3ccccc3)c2nc(-c2ccco2)n1-c1ccccc1 | inconclusive: 35.5 µM [inhibitor, single point] |  |
| CCC(=O)N1CCc2cc(S(=O)(=O)CCC(=O)N3CCc4ccccc4C3)ccc21 | inactive |  |
| CCOC(=O)C1C(=O)CC(C)(O)C(C(=O)OCC)C1/C=C/c1ccccc1 (stereo unspecified) | inconclusive: 2.51 µM [inhibitor, single point] |  |
| COc1cc(SC)ccc1C(=O)Nc1ccon1 | inconclusive: 2.82 µM [inhibitor, single point] |  |
| CCN(CC)C(=O)c1scc2c1OCCO2 | inconclusive: 11.2 µM [inhibitor, single point] |  |
| CC(/C=N/Nc1ccc2nncn2n1)=C\c1ccccc1 | inconclusive: 3.55 µM [activator, single point] |  |
| CC1(C)Cc2c(C#N)c(NCc3ccco3)nc(-c3ccco3)c2CO1 | active: 1 µM |  |
| N#CC(C#N)=c1ccc2c(c1)NC1(CCCCC1)N=2 | inconclusive: 5.62 µM [activator, partial curve] |  |
| CN(C)c1ccc(/C=C2\SC(=S)N(Nc3ncc(C(F)(F)F)cc3Cl)C2=O)cc1 | inconclusive: 25.1 µM [inhibitor, single point] |  |
| Cc1nn(-c2nnc(NCc3ccccc3)nn2)c(C)c1Br | inconclusive: 35.5 µM [inhibitor, single point] |  |
| C1=C(CCNc2ncnc3c2[nH]c2ccccc23)CCCC1 | inconclusive: 0.126 µM [inhibitor, full curve, poor fit] |  |
| CCCNC(=O)c1c(N)n(-c2cc(OC)cc(OC)c2)c2nc3ccccc3nc12 | active: 17.8 µM |  |
| C=CCn1c(Sc2ncc([N+](=O)[O-])s2)n[nH]c1=O | inconclusive: 5.62 µM [inhibitor, single point] |  |
| CN1C(=O)C2(OCC(COc3ccc(Cl)cc3)O2)c2ccccc21 (stereo unspecified) | active: 1 µM |  |
| O=C(CSc1nccc(=O)[nH]1)NN(c1ccccc1)c1ccccc1 | inactive |  |
| Cc1cc(NS(=O)(=O)c2ccc(Nc3nc(-c4ccc(O)cc4)cs3)cc2)no1 | inactive |  |
| COc1ccc([N+](=O)[O-])c(S(=O)(=O)c2ccccc2)n1 |  | inactive: -15.6% [at 9.22 µM] |
| COc1cc(/C=N/NC(=O)NC2CCCCC2)ccc1O | inconclusive: 0.631 µM [activator, single point] |  |
| c1ccc(Cc2nnc3sc(-c4ccncc4)nn23)cc1 | inconclusive: 3.16 µM [inhibitor, single point] |  |
| NS(=O)(=O)c1ccc(NC(=S)Nc2ccn(Cc3cccc4ccccc34)n2)cc1 | inactive |  |
| Clc1ccc(CN2C3=NCCCN3c3ccccc32)cc1 | inconclusive: 35.5 µM [inhibitor, single point] |  |
| O=C1C2C3C=CC(C3=C(c3ccccc3)c3ccccc3)C2C(=O)N1Cc1ccccc1 (stereo unspecified) |  | inactive: 1.46% [at 9.22 µM] |

| Structure (SMILES) | Potency | activity change, negative = inhibition |
| --- | --- | --- |
| CCCc1cc(=O)n2c([nH]c3ccccc32)c1C#N | inconclusive: 15.8 µM [inhibitor, single point] |  |
| CCC(Sc1nc(C)cc(C)n1)C(=O)NC1=NN=C(c2ccc(C)cc2)CS1 (stereo unspecified) | inconclusive: 35.5 µM [inhibitor, single point] |  |
| CCOc1cc(/C=N/Nc2nc(-c3cccc(S(=O)(=O)N4CCCC4)c3)cs2)ccc1O | inconclusive: 7.94 µM [activator, partial curve] |  |
| O=C(Nc1nnc(CC(c2ccccc2)c2ccccc2)s1)c1ccco1 | inconclusive: 20 µM [activator, single point] |  |
| Cn1c(=O)c2[nH]c(Nc3ccccc3)nc2n(C)c1=O | inconclusive: 10 µM [inhibitor, partial curve] |  |
| Cc1cc(C)nc(NC(=O)c2ccc([N+](=O)[O-])o2)n1 | inconclusive: 11.2 µM [activator, partial curve] |  |
| CCN1CCN(Cc2nc(N)nc(Nc3ccc(C)c(C)c3)n2)CC1 | inconclusive: 1.26 µM [inhibitor, partial curve] |  |
| CC(C)CCc1noc(CN(CC2CCC2)CC2CCCO2)n1 (stereo unspecified) |  | inactive: 26% [at 9.22 µM] |
| CCOC(=O)C1=C(c2ccccc2)NC(=O)NC1c1cc(Br)c(O)c(OC)c1 (stereo unspecified) | inactive |  |
| O=C(CNC(=O)c1ccccc1F)N/N=C/c1cc(Br)ccc1OC(=O)/C=C/c1ccco1 | active: 10 µM |  |
| NS(=O)(=O)c1ccc(NC(=O)Cc2c(F)cccc2Cl)cc1 | inactive |  |
| CC(=O)N1CCN(c2nc(-c3ccco3)c3c(c2C#N)CC(C)(C)SC3)CC1 | active: 12.6 µM |  |
| COc1ccc(C(=O)c2ccc([N+](=O)[O-])cc2Cl)cc1 | inconclusive: 35.5 µM [inhibitor, single point] |  |
| COc1ccc(CCNC(=O)C2CCCN2C(=O)NC2CCCCC2)cc1OC (stereo unspecified) | inactive |  |
| O=C(CSc1n[nH]c(-c2ccccc2O)n1)N1CCCc2ccccc21 | inconclusive: 25.1 µM [inhibitor, single point] |  |
| COc1ccc(CNC(=O)C(C)N2C(=O)COc3ccc(C)cc32)c(OC)c1 (stereo unspecified) | inconclusive: 2.82 µM [activator, partial curve] |  |
| COc1ccc(COc2cc(-c3cccc(OC)c3)nc3ccc(NC(=O)c4ccc(OC)cc4)cc23)cc1 | inconclusive: 35.5 µM [inhibitor, single point] |  |
| CC(=O)Nc1ccccc1OCC(=O)N(Cc1ccccc1)C(C)C | inactive |  |
| Cc1ccc(S(=O)(=O)NCC(=O)OCC(=O)c2cccs2)cc1 | inconclusive: 14.1 µM [activator, single point] |  |
| CCOc1ccccc1C1C(C#N)=C(N)Oc2cc(C)n(C)c(=O)c21 (stereo unspecified) | inconclusive: 0.631 µM [activator, single point] |  |
| COc1ccc(N2C(=O)N(Cc3ccc(C)cc3)c3ccccc3S2(=O)=O)cc1 | inconclusive: 12.6 µM [inhibitor, partial curve] |  |
| CCOC(=O)CS(=O)(=O)c1nc(-c2ccc(F)cc2)cc(C(F)(F)F)n1 | inconclusive: 35.5 µM [inhibitor, single point] |  |
| COc1ccc(-c2nc(C#N)c(N3CCOCC3)o2)cc1OC | inconclusive: 5.62 µM [inhibitor, single point] |  |
| S=C1SCN(Cc2ccco2)CN1Cc1ccco1 | inconclusive: 5.62 µM [inhibitor, single point] |  |

Molecules from the list above with a thiophene ring, fused or not (two):

| Structure (SMILES) | Potency | activity change, negative = inhibition |
| --- | --- | --- |
| CCN(CC)C(=O)c1scc2c1OCCO2 | inconclusive: 11.2 µM [inhibitor, single point] |  |
| Cc1ccc(S(=O)(=O)NCC(=O)OCC(=O)c2cccs2)cc1 | inconclusive: 14.1 µM [activator, single point] |  |

(cont.)

| Structure (SMILES) | Potency | activity change, negative = inhibition |
| --- | --- | --- |
| Cc1ccc(C)c(N2CCN(S(=O)(=O)c3ccc4c(c3)OCCO4)CC2)c1 | inconclusive: 35.5 µM [inhibitor, single point] |  |
| COc1ccc(OC)c(Nc2nc(-c3ccc(O)c(O)c3)cs2)c1 | inconclusive: 5.62 µM [activator, single point] |  |
| CCCCCCCCCCCCOCCCN | inactive |  |
| COc1ccc(-c2cc(C(=O)O)c3c(C)nn(-c4ccccn4)c3n2)cc1 | inactive |  |
| CC(NCCC(c1ccccc1)c1ccccc1)c1ccccc1 (stereo unspecified) | inconclusive: 35.5 µM [inhibitor, single point] |  |
| Cc1cc([N+](=O)[O-])nn1CCCC(=O)Nc1c(C)n(C)n(-c2ccccc2)c1=O | inconclusive: 1.26 µM [activator, partial curve] |  |
| CCC(=O)NC(O)C(=O)c1ccc(C)cc1 (stereo unspecified) | inconclusive: 0.562 µM [inhibitor, full curve, poor fit] |  |
| Cc1ccc(NS(=O)(=O)c2ccc3c(c2)C(=O)c2ccccc2C3=O)c(C)c1 | inconclusive: 35.5 µM [inhibitor, single point] |  |
| COc1ccc(CCNC(=O)c2ccc3nc(-c4ccco4)c(-c4ccco4)nc3c2)cc1OC | inconclusive: 1.26 µM [inhibitor, single point] |  |
| CCN1CCN(Cc2ccc(NC(=O)c3cc(NC(=O)c4cc5cccc(OC)c5o4)cc(OC)c3)cc2C(F)(F)F)CC1 |  | inactive: 31.4% [at 9.22 µM] |
| O=C1c2cccc3cccc(c23)C(=O)N1c1cccnc1 | inconclusive: 22.4 µM [inhibitor, single point] |  |
| CC(NC(=O)C1CCCC1)C1CC2CCC1C2 (stereo unspecified) | inactive |  |
| CC(Sc1nc(NC(C)(C)C)nc(N(C)C)n1)C(=O)Nc1ccccc1 (stereo unspecified) | inactive |  |
| Cc1cc(C(F)(F)F)nc(NCc2ccc(F)cc2)n1 | inconclusive: 35.5 µM [activator, single point] |  |
| O=c1c2ccccc2nc(/C=C/c2c[nH]c3ccccc23)n1-c1ccc([N+](=O)[O-])cc1 | inconclusive: 31.6 µM [activator, single point] |  |
| C/C(=N/NC(=O)CNC(=O)c1ccncc1)c1ccco1 |  | inactive: -18.3% [at 9.22 µM] |
| Cc1ccc(C)c(N2CCN(C(=O)c3ccc(NS(=O)(=O)c4c(C)noc4C)cc3)CC2)c1 | inconclusive: 8.91 µM [inhibitor, partial curve] |  |
| Cc1ccc(NC(=O)N/C=C/c2ccco2)c(C)c1 | inconclusive: 14.1 µM [activator, single point] |  |
| C/C(=N\OC(=O)Nc1ccccc1)c1cnn(-c2cc(C(F)(F)F)cc(C)n2)c1C |  | inactive: 14% [at 9.22 µM] |
| Cn1c(CNc2ccccc2)cc(=O)n(C)c1=O | inactive |  |
| O=C(COc1cccnc1[N+](=O)[O-])c1ccc(Cl)s1 |  | inactive: 1.89% [at 9.22 µM] |
| O=C(c1cccs1)c1ccc(-c2cccs2)s1 |  | inactive: -24% [at 9.22 µM] |
| CS(=O)(=O)c1ccc(SCC(=O)NC2CCS(=O)(=O)C2)c([N+](=O)[O-])c1 (stereo unspecified) | inactive |  |
